Data published in patent US20010006697A1, “Composition and method for producing low cholesterol eggs” (priority 1997, published 2001).
At least one structure is not confirmed: it was looked up by name or label, or the drawing left a doubt.

System: apolipoprotein B (apoB) mRNA
Assay: Northern blot of liver mRNA: apoB
Format: in vivo, White Leghorn hens
Details: normalized by 18S rRNA; day 35
Text: Endocrinol. […] Endocrinol.

Q: With `CCC(C)(C)C(=O)O[C@H]1C[C@@H](C)C=C2C=C[C@H](C)[C@H](CC[C@@H]3C[C@@H](O)CC(=O)O3)[C@H]21` [Simvastatin] as the molecule, how does the “hepatic apoB mRNA, linear contrasts (P≦0.05)” value read?
A: control>simvastatin
